Measurements taken from PubChem BioAssay AID651768 (National Center for Advancing Translational Sciences (NCATS), 2012).
Screen size: about 360,000 compounds; about 1,700 (0.47%) were called active. Inconclusive results, whose numbers are uncertain, are shown with a selection of clear calls. The call rests on the fitted dose curve; in most records, active means well fitted inhibition curve with a large enough effect; inconclusive means small, poorly fitted or top-dose-only effect; inactive means no such curve, though single readings can be large or run the other way. A potency beside an inconclusive call is a rough fit, not a confirmed value.

By UniProt entry, the sequences of proteins in these tests, tags left out.
UniProt Q14191, whole entry, looked up: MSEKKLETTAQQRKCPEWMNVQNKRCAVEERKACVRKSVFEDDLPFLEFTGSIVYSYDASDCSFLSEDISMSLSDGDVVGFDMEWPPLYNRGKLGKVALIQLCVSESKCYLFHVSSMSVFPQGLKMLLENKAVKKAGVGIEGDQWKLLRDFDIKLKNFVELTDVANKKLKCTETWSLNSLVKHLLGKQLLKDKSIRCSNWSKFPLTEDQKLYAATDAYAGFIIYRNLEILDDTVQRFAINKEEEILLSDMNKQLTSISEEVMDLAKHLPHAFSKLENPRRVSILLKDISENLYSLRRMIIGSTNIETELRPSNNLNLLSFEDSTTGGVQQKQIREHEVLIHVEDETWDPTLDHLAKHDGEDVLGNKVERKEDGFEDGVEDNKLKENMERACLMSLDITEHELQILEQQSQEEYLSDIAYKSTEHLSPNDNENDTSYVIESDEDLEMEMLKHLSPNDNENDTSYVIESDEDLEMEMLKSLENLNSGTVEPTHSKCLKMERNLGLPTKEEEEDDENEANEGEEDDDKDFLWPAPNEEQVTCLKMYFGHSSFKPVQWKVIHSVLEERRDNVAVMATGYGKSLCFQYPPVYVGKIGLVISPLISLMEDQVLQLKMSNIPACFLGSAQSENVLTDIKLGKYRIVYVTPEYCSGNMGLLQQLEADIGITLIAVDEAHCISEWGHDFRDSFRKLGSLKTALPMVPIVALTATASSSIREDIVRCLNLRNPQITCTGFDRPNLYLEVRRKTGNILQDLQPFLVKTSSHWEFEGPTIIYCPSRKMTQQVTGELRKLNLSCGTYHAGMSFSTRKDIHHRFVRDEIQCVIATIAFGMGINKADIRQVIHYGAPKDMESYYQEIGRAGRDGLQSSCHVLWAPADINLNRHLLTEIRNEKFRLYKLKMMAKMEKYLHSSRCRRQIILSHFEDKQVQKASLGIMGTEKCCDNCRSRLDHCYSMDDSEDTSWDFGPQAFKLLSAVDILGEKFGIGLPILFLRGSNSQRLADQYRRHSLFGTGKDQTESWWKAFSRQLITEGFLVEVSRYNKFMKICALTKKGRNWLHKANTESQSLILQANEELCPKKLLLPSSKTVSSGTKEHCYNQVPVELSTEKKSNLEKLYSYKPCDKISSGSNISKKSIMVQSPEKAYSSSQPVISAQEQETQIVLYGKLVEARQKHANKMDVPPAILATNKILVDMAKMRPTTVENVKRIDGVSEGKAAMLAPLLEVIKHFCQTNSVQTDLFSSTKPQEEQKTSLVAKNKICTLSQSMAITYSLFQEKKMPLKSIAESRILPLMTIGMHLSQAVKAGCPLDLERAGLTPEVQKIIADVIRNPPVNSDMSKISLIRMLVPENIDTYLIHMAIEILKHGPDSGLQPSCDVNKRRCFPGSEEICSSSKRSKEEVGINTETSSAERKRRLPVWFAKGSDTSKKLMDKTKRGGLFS

molecular target: Bifunctional 3'-5' exonuclease/ATP-dependent helicase WRN (Homo sapiens) (UniProt Q14191); assay: qHTS for Inhibitors of WRN Helicase; settings: WRN helicase unwinding, fluorescent forked duplex, kinetic; activity change, negative = inhibition: at 114 µM (top of the series) unless noted; further: nearly all actives have a fitted effect of over 55% in size
How it was run: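 Enzyme (20 nM final) and test compound sit together 15 min at room temperature before substrate addition. Substrate is a single-forked duplex oligonucleotide (100 nM) labelled with fluorophore and quencher, with 2 mM ATP; helicase unwinding raises red fluorescence, read kinetically.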
On the % scale 0 is the no-effect control and ±100 the full control effect; potency means the concentration at half of the fitted maximal effect.

Structure (SMILES)	Potency	activity change, negative = inhibition
CCn1c(O)c(/C=N/NC(=O)c2ccccc2)c(=O)n(CC)c1=S	inconclusive: 89.1 µM [inhibitor, single point]	–
CC1(C)OC(c2ccccc2)=C/C(=C/C=C2C(=O)NC(=S)NC2=O)O1	active: 8.91 µM	–
O=C1NC(=O)N(CCc2ccc(F)cc2)C(=O)/C1=C/c1ccco1	active: 35.5 µM	–
CSc1ccc(C(=O)C2CCCN(Cc3cccnc3)C2)cc1 (stereo not given)	–	inactive: 5.03%
CCc1ccc(N2C(=O)NC(=O)/C(=C\c3cc(C)n(-c4cc(C(=O)O)cc(C(=O)O)c4)c3C)C2=O)cc1	inconclusive: 15.8 µM [inhibitor, full curve, poor fit]	–
COc1ccc2c(c1OC)CN1CCc3cc4c(cc3[C@H]1C2)OCO4	–	inactive: 2.47%
Nc1c(Br)cc2c3c(cccc13)-c1ccccc1-2	inconclusive: 11.2 µM [inhibitor, full curve]	–
COc1ccc(/C=C/C=C2C(=O)NC(=S)NC2=O)cc1	active: 44.7 µM	–
O=C(N/N=C/c1c(O)n(CCC2=CCCCC2)c(=S)[nH]c1=O)c1ccccc1	–	inactive: -20.3%
C=Cn1c(P(=S)(N2CCOCC2)N2CCOCC2)cc2c1CCCC2	–	inactive: -17.8%
O=C(O)Cn1cc(/C=C2\C(=O)NC(=O)N(c3ccc(Br)cc3)C2=O)c2ccccc21	inconclusive: 35.5 µM [inhibitor, partial curve]	–
COc1ccc(-c2ccc3n2Cc2cnnn2-c2ccccc2-3)cc1	–	inactive: -0.685%
CCN1/C(=C\C=C\C2=[N+](CC)c3ccccc3C2(C)C)C(C)(C)c2ccccc21	active: 44.7 µM	–
O=C(N/N=C/C1C(=O)NC(=S)N(c2ccccc2)C1=O)c1cc(Br)c(O)c(Br)c1 (stereo not given)	active: 79.4 µM	–
N#CC1=C(N)Oc2c(c(=O)oc3ccccc23)C1c1ccc([N+](=O)[O-])o1 (stereo not given)	inconclusive: 50.1 µM [inhibitor, partial curve]	–
COc1ccc(Cn2c(N)c(C(=O)NCc3ccco3)c3nc4ccccc4nc32)cc1OC	inconclusive: 50.1 µM [inhibitor, partial curve]	–
CCOc1ccc(NS(=O)(=O)c2ccc(Cl)c(N=Nc3c(O)[nH]c(=S)[nH]c3=O)c2)cc1Br	inconclusive: 79.4 µM [inhibitor, partial curve]	–
O=C1NC(=O)N(Cc2ccc(F)cc2)C(=O)/C1=C\c1ccc([N+](=O)[O-])s1	active: 39.8 µM	–
CCC1(C)OC(c2ccccc2)=C/C(=C/C=C2C(=O)NC(=O)NC2=O)O1 (stereo not given)	inconclusive: 11.2 µM [inhibitor, partial curve]	–
CN1CCN(c2ccc([N+](=O)[O-])c(Sc3nncn3C)c2)CC1	inconclusive: 39.8 µM [inhibitor, single point]	–
CCOc1cc(C=C2C(=O)NC(=S)NC2=O)ccc1O	active: 50.1 µM	–
Cc1cc(N2CCCC2)ccc1C=C(C#N)C#N	inconclusive: 79.4 µM [inhibitor, partial curve]	–
Cc1ccc(N2C(=O)NC(=O)/C(=C\c3cc(C)n(-c4cc(C(=O)O)cc(C(=O)O)c4)c3C)C2=O)cc1	inconclusive: 50.1 µM [inhibitor, partial curve]	–
CCN(CC)c1ccc(/C=C/[N+](=O)[O-])cc1	–	inactive: -19.7%

Structure (SMILES)	Potency	activity change, negative = inhibition
O=C(O)CCn1cc(C=C2C(=O)NC(=S)NC2=O)c(-c2cc3ccccc3oc2=O)n1	inconclusive: 50.1 µM [inhibitor, partial curve]	–
O=C1NC(=S)N(c2ccccc2)C(=O)/C1=C/c1ccco1	active: 0.947 µM	–
O=C(O)CCn1cc(C=C2C(=O)NC(=S)NC2=O)c(-c2ccccc2)n1	inconclusive: 56.2 µM [inhibitor, partial curve]	–
CCOC(=O)C1C2NC(=O)N(Cc3ccccc3)C1(C)Oc1c(OC)cccc12 (stereo not given)	–	inactive: -3.19%
CCN1/C(=C/C=C/C2=[N+](CC)c3ccccc3C2(C)C)C(C)(C)c2ccccc21	active: 4.74 µM	–
O=C(c1ccccc1)C(CN1CCCC1)c1ccccc1 (stereo not given)	inconclusive: 35.5 µM [inhibitor, partial curve]	–
COc1ccc(CC2(CCc3ccncc3)C(=O)NC(=O)NC2=O)cc1OC	–	inactive: -5.76%
O=c1c2ccccc2nc(CSc2ncnc3nc[nH]c23)n1-c1ccccc1	–	inactive: -3.79%
CN(C)c1ccc(C=C2C(=O)NC(=S)NC2=O)cc1[N+](=O)[O-]	inconclusive: 50.1 µM [inhibitor, partial curve]	–
CN1C(=O)C(=Cc2ccccc2Oc2ccc(Cl)cc2)C(=O)N(C)C1=O	active: 44.7 µM	–
O=C1NC(=O)N(c2ccccc2)C(=O)/C1=C/c1ccoc1	inconclusive: 44.7 µM [inhibitor, partial curve]	–
c1ccc(OCc2ccc(CCCN3CCOCC3)cc2)cc1	inconclusive: 79.4 µM [inhibitor, single point]	–
CCC(=NCc1ccco1)c1c(O)n(-c2ccc(Cl)cc2)c(=O)[nH]c1=O	inconclusive: 3.55 µM [inhibitor, full curve, poor fit]	–
CSc1ncc(/C=C2/C(=O)NC(=O)N(c3ccc(C(C)C)cc3)C2=O)cn1	active: 50.1 µM	–
N=C1c2ccccc2CN1NC(=O)C1CC1	inconclusive: 14.1 µM [inhibitor, partial curve]	–
Cc1cc(C)cc(N2C(=O)NC(=O)/C(=C\c3cc(C)n(C)c3C)C2=O)c1	inconclusive: 28.2 µM [inhibitor, single point]	–
O=C1NC(=O)N(c2ccccc2F)C(=O)/C1=C/c1ccc(Sc2nc3ccccc3[nH]2)o1	active: 22.4 µM	–
O=C1CC=C2C3CC4N(CCC45c4cc(O)c(O)cc4N1C25)CC3=CCBr (stereo not given)	active: 28.2 µM	–
COc1cc(N2CCOCC2)ccc1/C=C1\C(=O)NC(=O)N(C2CCCCC2)C1=O	active: 79.4 µM	–
Cc1cc(C=C2C(=O)N(C)C(=S)N(C)C2=O)c(C)n1-c1cccnc1	inconclusive: 44.7 µM [inhibitor, partial curve]	–
O=C1NC(=O)N(c2ccc(Cl)cc2)C(=O)/C1=C/c1coc2ccc(O)cc2c1=O	inconclusive: 50.1 µM [inhibitor, partial curve]	–
CN(C)c1ccc(/C=C2/C(=O)NC(=O)N(Cc3ccco3)C2=O)cc1	active: 50.1 µM	–
C=C1C2[C@H](OC(C)=O)[C@@H]3CC(=O)[C@]4(C)OC[C@@]3(C)[C@@]4(O)[C@@H](OC(C)=O)[C@H](OC(C)=O)[C@@]2(COC(=O)c2ccccc2)[C@@H](OC(C)=O)C[C@@H]1O (stereo not given in full)	–	inactive: 7.56%
Cn1c(O)c(/C=C2\N=c3ccccc3=C2CCNC(=S)NC2CC2)c(=O)n(C)c1=O	–	inactive: -3.5%

Structure (SMILES)	Potency	activity change, negative = inhibition
CC[n+]1c(/C=C/C=C/c2ccc(N(C)C)cc2)sc2ccccc21	active: 56.2 µM	–
CCN(CC)c1ccc(N=Cc2c(O)n(-c3ccccc3)c(=O)[nH]c2=O)cc1	–	inactive: -5.96%
Cc1c(N=Cc2c(O)n(Cc3ccco3)c(=O)[nH]c2=O)c(=O)n(-c2ccccc2)n1C	–	inactive: -10.2% [at 11.6 µM]
COc1cccc(N2C(=O)NC(=O)/C(=C/c3ccc([N+](=O)[O-])s3)C2=O)c1	active: 35.5 µM	–
CC(=O)N(C)C1=Nc2ccc(Cl)cc2C(c2ccccc2)=[N+]([O-])C1	–	inactive: 10.2%
COc1cc(C2c3cc4c(cc3CC3COC(=O)C32)OCO4)cc(OC)c1O (stereo not given)	inconclusive: 22.4 µM [inhibitor, full curve]	–
CCN(CC)c1ccc(NC(=O)c2cccc(C)c2)cc1S(=O)(=O)Nc1ccccc1OC	inconclusive: 89.1 µM [inhibitor, partial curve, poor fit]	–
O=C1NC(=O)C(=Cc2ccc(-c3ccc(Cl)cc3)o2)C(=O)N1	–	inactive: -22.8%
COc1cc(Cn2c(N)c(C(=O)NCc3ccco3)c3nc4ccccc4nc32)cc(OC)c1OC	inconclusive: 20 µM [inhibitor, partial curve]	–
O=C1NC(=O)C(=Cc2ccc(N3CCN(C(=O)c4ccccc4)CC3)c([N+](=O)[O-])c2)C(=O)N1	inconclusive: 22.4 µM [inhibitor, single point]	–
CN1C(=O)C(=Cc2cccnc2)C(=O)N(C)C1=O	inconclusive: 39.8 µM [inhibitor, full curve]	–
O=C1NC(=O)C(=Cc2ccc(-c3ccccc3[N+](=O)[O-])o2)C(=O)N1	inconclusive: 100 µM [inhibitor, partial curve]	–
Nc1c(C(=O)NCCCc2ccccc2)c2nc3ccccc3nc2n1Cc1cccs1	–	inactive: -18.8%
Cc1ccc(N2C(=O)NC(=O)/C(=C/c3ccc(-c4ccc(C(=O)O)c(Cl)c4)o3)C2=O)cc1	inconclusive: 17.8 µM [inhibitor, full curve]	–
Cc1ccc(C=C2C(Cl)=C(Cl)C(Cl)=C2Cl)cc1	active: 44.7 µM	–
Cc1ccccc1N1C(=O)NC(=O)/C(=C\c2cnn(-c3ccccc3)c2)C1=O	inconclusive: 39.8 µM [inhibitor, single point]	–
CCN(CC)c1ccc(/C=C2\C(=O)NC(=O)N(Cc3ccco3)C2=O)cc1	active: 28.2 µM	–
CCOc1ccc(C=C2C(=O)NC(=S)NC2=O)cc1OCC	inconclusive: 56.2 µM [inhibitor, partial curve]	–
O=C1NC(=S)NC(=O)C1=Cc1cccc2cc3ccccc3cc12	inconclusive: 2.67 µM [inhibitor, partial curve]	–
Cc1ccc(N2C(=O)NC(=O)/C(=C\C=C\c3ccco3)C2=O)cc1C	active: 15.8 µM	–
Cc1cccc(C(=O)NC(Oc2ccccc2)C(Cl)(Cl)Cl)c1 (stereo not given)	–	inactive: -1.34%
Cc1cc(C)cc(N2C(=O)NC(=O)/C(=C\c3cccn3-c3ccccc3)C2=O)c1	inconclusive: 17.8 µM [inhibitor, single point]	–

Individual results from the results shown:
In activity change, negative = inhibition, CCOC(=O)C1C2NC(=O)N(Cc3ccccc3)C1(C)Oc1c(OC)cccc12 (stereo not given) is listed with inactive: -3.19%
In activity change, negative = inhibition, Cc1cccc(C(=O)NC(Oc2ccccc2)C(Cl)(Cl)Cl)c1 (stereo not given) is listed with inactive: -1.34%
In Potency, CCOc1ccc(NS(=O)(=O)c2ccc(Cl)c(N=Nc3c(O)[nH]c(=S)[nH]c3=O)c2)cc1Br is listed with inconclusive: 79.4 µM [inhibitor, partial curve]
